Measured values reported in publication PMC5469152.
No constants are given. Whether binding was seen depends on the method and setting. In cells and extracts the contact can be indirect. Some results given as binding are weak or reduced against the parent protein; the word gives no strength. Where a sequence is shown, tags or fusion partners need not be part of it.

T1: nYFP-XLG1 (BiFC bait) (Arabidopsis thaliana) (UniProt O80462)
T1 sequence: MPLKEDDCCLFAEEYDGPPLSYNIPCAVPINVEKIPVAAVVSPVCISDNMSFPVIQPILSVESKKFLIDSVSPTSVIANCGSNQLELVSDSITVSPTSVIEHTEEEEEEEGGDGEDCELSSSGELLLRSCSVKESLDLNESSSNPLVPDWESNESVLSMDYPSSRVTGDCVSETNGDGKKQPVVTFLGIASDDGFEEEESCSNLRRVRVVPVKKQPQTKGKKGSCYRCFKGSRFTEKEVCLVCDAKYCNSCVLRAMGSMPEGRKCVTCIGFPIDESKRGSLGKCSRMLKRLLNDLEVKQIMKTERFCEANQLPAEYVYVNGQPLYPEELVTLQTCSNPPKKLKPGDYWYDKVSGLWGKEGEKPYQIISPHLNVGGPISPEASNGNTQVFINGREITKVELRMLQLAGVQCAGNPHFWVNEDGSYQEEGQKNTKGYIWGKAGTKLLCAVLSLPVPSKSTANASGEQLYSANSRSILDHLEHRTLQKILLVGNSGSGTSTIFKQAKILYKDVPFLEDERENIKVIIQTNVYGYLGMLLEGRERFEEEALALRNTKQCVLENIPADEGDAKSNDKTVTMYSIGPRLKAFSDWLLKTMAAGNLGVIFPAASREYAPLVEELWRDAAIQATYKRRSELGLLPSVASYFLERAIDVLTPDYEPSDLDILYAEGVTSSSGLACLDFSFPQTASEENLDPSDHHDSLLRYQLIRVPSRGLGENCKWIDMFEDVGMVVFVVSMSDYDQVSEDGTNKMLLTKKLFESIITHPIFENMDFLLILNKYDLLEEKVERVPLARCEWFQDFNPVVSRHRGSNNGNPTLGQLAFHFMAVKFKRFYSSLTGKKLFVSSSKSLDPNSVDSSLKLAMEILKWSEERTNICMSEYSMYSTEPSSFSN


The binders below were run against T1, nYFP-XLG1 (BiFC bait) (Arabidopsis thaliana) (assay: split reporter; BiFC: nYFP-XLG1 or nYFP-XLG3 with cYFP-tagged prey in leaf cells, confocal imaging of YFP; mitochondrial RFP marker or NLS-CFP as control of transformation).

Binder | binding
Putative protein kinase At1g71410, cYFP fusion (BiFC prey) (protein, UniProt Q9C9H8 1-909) MSINMKTFTQALARTAAVIEKTVHTTVQEVTGPKALQDYELLDQIGSAGPGLAWKLYAAKARDSTRPQQYPTVCVWMLDKRALSEARVRANLSKAAEDAFLDLIRADAGKLVRLRHPGVVHVVQALDENKNAMALVTEPLFASVANALGNVENVGNVPKDLKSMEMSLLEVKHGLLQISETLNFLHNNANLIHRAISPENVLITSAGSWKLAGFGFAISAAQAGNLDNMQSFHYSEYDVEDSILPVQPSLNYTAPELMRSKSPSAGASSDIFSFGCLAYHLVARKPLFDCNNNVKMYMNTLNYITNESFSSIPSELVSDLQRMLSTNESFRPTALDFTGSNFFRSDARLRALRFLDHLLERDNMQKSEFLKALSDMWKDFDSRVLRYKVLPPLCAELRNLVLQPIILPMVLTIAQSQDRTDFELITLPALVPVLSTASGDTLLLLVKHADLITNKTDSEHLVSHVLPLLLRAYNDNDVRIQEEVLKRSTSVAKQLDGQVVRQAILPRVHGLALKTTVAAVRVNALLCLAELVQTLDKPAAIEILETIQRCTAVDRSAPTLMCTLAVANAILKQYGVEFTAEHVLTLMMPLLTAQQLNVQQFAKYMLFVKDILRKIEEKRGVTVNDSGVPEVKPHSAANGLQFQSSTQIPEKVASAAKSSPAWDEDWGSPSKDSAVGNPASSRHNTNDQFNKSTDQSQPSIMSTLPNKTTAPTTCPAVDIEWPPRQSSSLTAPATDNQTQLNTGTSFASGFDELDPFANWPPRPNNGASVASTGLKNGAASNFSNNLPGGTHFQTANNDNWAFSSASLSSLKPPQQGNQGISANNQDPLNSFGVPKQSQGMPSFTSGSYNNQKPADISSIFGSSKTEPSAMKLAPPPSIAMGRGRGRGRGGTGTSTSKPSGSQPSLLDLL | binds
Salt-inducible zinc finger 1, cYFP fusion (BiFC prey) (protein, UniProt Q93ZS9 1-580) MCSGPKSNLCSSRTLTEIESRQKEEETMLLLEFAACDDLDSFKREVEEKGLDLDESGLWYCRRVGSKKMGLEERTPLMVAAMYGSIKVLTFIVSTGKSDVNRACGEERVTPLHCAVAGCSVNMIEVINVLLDASALVNSVDANGNQPLDVFVRVSRFVASPRRKAVELLLRGGGVGGLIDEAVEEEIKIVSKYPADASLPDINEGVYGSDEFRMYSFKVKPCSRAYSHDWTECAFVHPGENARRRDPRKYPYTCVPCPEFRKGSCPKGDSCEYAHGVFESWLHPAQYKTRLCKDETGCARKVCFFAHKREEMRPVNASTGSAVAQSPFSSLEMMPGLSPLAYSSGVSTPPVSPMANGVPSSPRNGGSWQNRVNTLTPPALQLNGGSRLKSTLSARDIDMEMEMELRLRGFGNNVEETFGSYVSSPSRNSQMGQNMNQHYPSSPVRQPPSQHGFESSAAAAVAVMKARSTAFAKRSLSFKPATQAAPQSNLSDWGSPNGKLEWGMKGEELNKMRRSVSFGIHGNNNNNAARDYRDEPDVSWVNSLVKDSTVVSERSFGMNERVRIMSWAEQMYREKEQTVV | binds
Aldehyde dehydrogenase 3H1, cYFP fusion (BiFC prey) (protein, UniProt Q70DU8 1-484) MAAKKVFGSAEASNLVTELRRSFDDGVTRGYEWRVTQLKKLMIICDNHEPEIVAALRDDLGKPELESSVYEVSLLRNSIKLALKQLKNWMAPEKAKTSLTTFPASAEIVSEPLGVVLVISAWNYPFLLSIDPVIGAISAGNAVVLKPSELAPASSALLTKLLEQYLDPSAVRVVEGAVTETSALLEQKWDKIFYTGSSKIGRVIMAAAAKHLTPVVLELGGKSPVVVDSDTDLKVTVRRIIVGKWGCNNGQACVSPDYILTTKEYAPKLIDAMKLELEKFYGKNPIESKDMSRIVNSNHFDRLSKLLDEKEVSDKIVYGGEKDRENLKIAPTILLDVPLDSLIMSEEIFGPLLPILTLNNLEESFDVIRSRPKPLAAYLFTHNKKLKERFAATVSAGGIVVNDIAVHLALHTLPFGGVGESGMGAYHGKFSFDAFSHKKAVLYRSLFGDSAVRYPPYSRGKLRLLKALVDSNIFDLFKVLLGLA | binds
Magnesium transporter MRS2-3, cYFP fusion (BiFC prey) (protein, UniProt Q9LJN2 1-484) MRGARPDEFNFSTNPSTPNTGQPTPTYPAGVGGGGGGRKKGVGVRTWLVLNSSGQSEPKEEGKHSIMRRTGLPARDLRILDPLLSYPSTVLGRERAIVINLEHIKAIITAQEVLLLNSKDPSVSPFIDELQRRILCHHHATKPQEEQNSGGEPHTRVDPAQGEAGTEQSSGDQGSEAKKDAKQSLENQDGSKVLPFEFVALEACLEAASSSLEHEALRLELEAHPALDKLTSKISTLNLERVRQIKSRLVAITGRVQKVRDELEHLLDDDEDMAEMYLTEKLAQKLEDSSNSSMNESDTFEVDLPQGDEDDRLPPEFASEANRDGRYLQANDAHELLMSTQSALSRNSRGTHTSSTRSAMTNKLDVEELEMLLEAYFVQIDGILNKLSTLREYVDDTEDYINIMLDDKQNHLLQMGVMLTTATLVMSAFIAVAGVFGMNITIELFTDNKHGPSRFIWTVIGGSIGSICLYVGAIGWCKYKRLLE | binds
Zinc finger CCCH domain-containing protein 29, cYFP fusion (BiFC prey) (protein, UniProt Q9XEE6 1-597) MCGAKSNLCSSKTLTEVEFMRQKSEDGASATCLLEFAACDDLSSFKREIEENPSVEIDESGFWYCRRVGSKKMGFEERTPLMVAAMYGSMEVLNYIIATGRSDVNRVCSDEKVTALHCAVSGCSVSIVEIIKILLDASASPNCVDANGNKPVDLLAKDSRFVPNQSRKAVEVLLTGIHGSVMEEEEEELKSVVTKYPADASLPDINEGVYGTDDFRMFSFKVKPCSRAYSHDWTECPFVHPGENARRRDPRKYPYTCVPCPEFRKGSCPKGDSCEYAHGVFESWLHPAQYRTRLCKDETGCARRVCFFAHRRDELRPVNASTGSAMVSPRSSNQSPEMSVMSPLTLGSSPMNSPMANGVPLSPRNGGLWQNRVNSLTPPPLQLNGSRLKSTLSARDMDMEMELRFRGLDNRRLGDLKPSNLEETFGSYDSASVMQLQSPSRHSQMNHYPSSPVRQPPPHGFESSAAMAAAVMNARSSAFAKRSLSFKPAPVASNVSDWGSPNGKLEWGMQRDELNKLRRSASFGIHGNNNNSVSRPARDYSDEPDVSWVNSLVKENAPERVNERVGNTVNGAASRDKFKLPSWAEQMYIDHEQQIVA | binds
ESCRT-related protein CHMP1A, cYFP fusion (BiFC prey) (protein, UniProt Q8LE58 1-203) MGNTDKLMNQIFELKFTSKSLQRQARKCEKEERSEKLKVKKAIEKGNMDGARIYAENAIRKRSEQMNYLRLSSRLDAVVARLDTQAKMATITKSMTNIVKSLESSLTTGNLQKMSETMDSFEKQFVNMEVQAEFMDNAMAGSTSLSTPEGEVNSLMQQVADDYGLEVSVGLPQPAGHAIPTKTEEKVEEDDLTRRLAELKARG | binds
CASP-like protein, cYFP fusion (BiFC prey) (protein, UniProt Q8LE26 1-188) MTNPDNMKPVEATDVESAAEKTSEPTPASGTSTITQRWKREDLIKKASPITRGICLLFSLIAFLIMVSNKHGYGRNFNDYEEYRYVLAISIISTLYTAWQTFAHFSKREIFDRRTSILVDFSGDQIVAYLLISAASSAIPLTNIFREGQDNIFTDSAASAISMAIFAFIALALSALFSGYKLSTHSFI | binds
DCD (Development and Cell Death) domain protein At5g42050, cYFP fusion (BiFC prey) (protein, UniProt Q8RXN8 1-349) MEYNNNNQQSFWQFSDQLRVQTPNLANLSLNDSIWSTNSVFKERRNLDIAATTDKNNNQIDYYQKKTTSDNINSNWNWKSSGSNNDMGLGFGPVGSKSTVDLNPIDKFNSPFNDTWKFNSVNVNVNGYSPSSAVNGDFNKGVYTSMKKYGYNVNLKNNNKNKGIDEDHQIQKGGKKNRKNQQNNNNQRNEDDKNNGLDKRFKTLPPAEALPRNETIGGYIFVCNNDTMEENLKRQLFGLPPRYRDSVRAITPGLPLFLYNYSTHQLHGIYEAASFGGTNIELNAFEDKKCPGESRFPAQVRAITRKVCLPLEEDSFRPILHHYDGPKFRLELSVPEVLSLLDIFADQNP | binds
Senescence-associated protein SAG21, cYFP fusion (BiFC prey) (protein, UniProt Q93WF6 47-97) ASAVMKKKGVEESTQKISWVPDPKTGYYRPETGSNEIDAAELRAALLNNKQ | binds
